Data: PMC10861311
These are yes or no findings as the source states them, for the method shown. Binding seen in cells or lysates may run through a third protein. These calls come from enrichment with a bait or labelling near it, and not all partners need be listed. Sequences can lack the tags named with a protein.

B1: multidrug efflux transporter outer membrane subunit MdtP (protein, UniProt P32714 24-488)
chain: CALVRKDSAPHQQLKPEQIKLADDIHLASSGWPQAQWWKQLNDPQLDALIQRTLSGSHTLAEAKLREEKAQSQADLLDAGSQLQVAALGMLNRQRVSANGFLSPYSMDAPALGMDGPYYTEATVGLFAGLDLDLWGVHRSAVAAAIGAHNAALAETAAVELSLATGVAQLYYSMQASYQMLDLLEQTHDVIDYAVKAHQSKVAHGLEAQVPFHGARAQILAVDKQIVAVKGQITETRESLRALIGAGASDMPEIRPVALPQVQTGIPATLSYELLARRPDLQAMRWYVQASLDQVDSARALFYPSFDIKAFFGLDSIHLHTLFKKTSRQFNFIPGLKLPLFDGGRLNANLEGTRAASNMMIERYNQSVLNAVRDVAVNGTRLQTLNDEREMQAERVEATRFTQRAAEAAYQRGLTSRLQATEARLPVLAEEMSLLMLDSRRVIQSIQLMKSLGGGYQAGPVVEKK
B2: histidine kinase YpdA (protein, UniProt P0AA93 1-565)
chain: MHEIFNMLLAVFDRAALMLICLFFLIRIRLFRELLHKSAHSPKELLAVTAIFSLFALFSTWSGVPVEGSLVNVRIIAVMSGGILFGPWVGIITGVIAGIHRYLIDIGGVTAIPCFITSILAGCISGWINLKIPKAQRWRVGILGGMLCETLTMILVIVWAPTTALGIDIVSKIGIPMILGSVCIGFIVLLVQSVEGEKEASAARQAKLALDIANKTLPLFRHVNSESLRKVCEIIRDDIHADAVAITNTDHVLAYVGVGEHNYQNGDDFISPTTRQAMNYGKIIIKNNDEAHRTPEIHSMLVIPLWEKGVVTGTLKIYYCHAHQITSSLQEMAVGLSQIISTQLEVSRAEQLREMANKAELRALQSKINPHFLFNALNAISSSIRLNPDTARQLIFNLSRYLRYNIELKDDEQIDIKKELYQIKDYIAIEQARFGDKLTVIYDIDEEVNCCIPSLLIQPLVENAIVHGIQPCKGKGVVTISVAECGNRVRIAVRDTGHGIDPKVIERVEANEMPGNKIGLLNVHHRVKLLYGEGLHIRRLEPGTEIAFYIPNQRTPVASQATLLL
B3: multidrug efflux RND transporter permease AcrD (protein, UniProt P24177 1-1037)
chain: MANFFIDRPIFAWVLAILLCLTGTLAIFSLPVEQYPDLAPPNVRVTANYPGASAQTLENTVTQVIEQNMTGLDNLMYMSSQSSGTGQASVTLSFKAGTDPDEAVQQVQNQLQSAMRKLPQAVQNQGVTVRKTGDTNILTIAFVSTDGSMDKQDIADYVASNIQDPLSRVNGVGDIDAYGSQYSMRIWLDPAKLNSFQMTAKDVTDAIESQNAQIAVGQLGGTPSVDKQALNATINAQSLLQTPEQFRDITLRVNQDGSEVRLGDVATVEMGAEKYDYLSRFNGKPASGLGVKLASGANEMATAELVLNRLDELAQYFPHGLEYKVAYETTSFVKASIEDVVKTLLEAIALVFLVMYLFLQNFRATLIPTIAVPVVLMGTFSVLYAFGYSVNTLTMFAMVLAIGLLVDDAIVVVENVERIMSEEGLTPREATRKSMGQIQGALVGIAMVLSAVFVPMAFFGGTTGAIYRQFSITIVAAMVLSVLVAMILTPALCATLLKPLKKGEHHGQKGFFAWFNQMFNRNAERYEKGVAKILHRSLRWIVIYVLLLGGMVFLFLRLPTSFLPLEDRGMFTTSVQLPSGSTQQQTLKVVEQIEKYYFTHEKDNIMSVFATVGSGPGGNGQNVARMFIRLKDWSERDSKTGTSFAIIERATKAFNQIKEARVIASSPPAISGLGSSAGFDMELQDHAGAGHDALMAARNQLLALAAENPELTRVRHNGLDDSPQLQIDIDQRKAQALGVAIDDINDTLQTAWGSSYVNDFMDRGRVKKVYVQAAAPYRMLPDDINLWYVRNKDGGMVPFSAFATSRWETGSPRLERYNGYSAVEIVGEAAPGVSTGTAMDIMESLVKQLPNGFGLEWTAMSYQERLSGAQAPALYAISLLVVFLCLAALYESWSVPFSVMLVVPLGVIGALLATWMRGLENDVYFQVGLLTVIGLSAKNAILIVEFANEMNQKGHDLFEATLHACRQRLRPILMTSLAFIFGVLPMATSTGAGSGGQHAVGTGVMGGMISATILAIYFVPLFFVLVRRRFPLKPRPE
B4: transcriptional regulator AraC (protein, UniProt P0A9E0 1-292)
chain: MAEAQNDPLLPGYSFNAHLVAGLTPIEANGYLDFFIDRPLGMKGYILNLTIRGQGVVKNQGREFVCRPGDILLFPPGEIHHYGRHPEAREWYHQWVYFRPRAYWHEWLNWPSIFANTGFFRPDEAHQPHFSDLFGQIINAGQGEGRYSELLAINLLEQLLLRRMEAINESLHPPMDNRVREACQYISDHLADSNFDIASVAQHVCLSPSRLSHLFRQQLGISVLSWREDQRISQAKLLLSTTRMPIATVGRNVGFDDQLYFSRVFKKCTGASPSEFRAGCEEKVNDVAVKLS
B5: histidine kinase precursor ZraS (protein, UniProt P14377 1-465)
chain: MRFMQRSKDSLAKWLSAILPVVIVGLVGLFAVTVIRDYGRASEADRQALLEKGNVLIRALESGSRVGMGMRMHHVQQQALLEEMAGQPGVLWFAVTDAQGIIILHSDPDKVGRALYSPDEMQKLKPEENSRWRLLGKTETTPALEVYRLFQPMSAPWRHGMHNMPRCNGKAVPQVDAQQAIFIAVDASDLVATQSGEKRNTLIILFALATVLLASVLSFFWYRRYLRSRQLLQDEMKRKEKLVALGHLAAGVAHEIRNPLSSIKGLAKYFAERAPAGGEAHQLAQVMAKEADRLNRVVSELLELVKPTHLALQAVDLNTLINHSLQLVSQDANSREIQLRFTANDTLPEIQADPDRLTQVLLNLYLNAIQAIGQHGVISVTASESGAGVKISVTDSGKGIAADQLDAIFTPYFTTKAEGTGLGLAVVHNIVEQHGGTIQVASQEGKGSTFTLWLPVNITRKDPQG

What follows are binders tested against GST-NDM-5 fusion protein (E. coli) (assay: affinity purification with mass spectrometry; about 25 ug GST-NDM-5 (or GST as control) immobilised on glutathione resin; 25 ug total protein from E. coli added; 4 °C for 4 h; washed 3 times with PBS; eluate analysed by SDS-PAGE (silver stain) and mass spectrometry (MASCOT, UniProt); proteins also found with GST alone removed; only the target purified).

**Q.** B1 was tested. Which binding did it give?
**A.** Its binding is “binds”.

**Q.** Which binding does the source give for B2 here?
**A.** The binding was “binds”.

**Q.** For B3, which binding is on record?
**A.** Its binding is “binds”.

**Q.** For B4, which binding is on record?
**A.** The binding was “binds”.

**Q.** With B5 as the binder, how does the binding read?
**A.** Its binding is “binds”.
